These results are taken from patent US20230349919A1.

Sequences of proteins named here, by UniProt entry; tags and fusion partners are left off. A change or cut given only in a name is not applied to a line headed by its entry.
UniProt P30438: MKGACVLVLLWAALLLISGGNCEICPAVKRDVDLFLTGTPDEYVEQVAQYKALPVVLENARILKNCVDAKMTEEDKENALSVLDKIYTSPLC
UniProt P30440: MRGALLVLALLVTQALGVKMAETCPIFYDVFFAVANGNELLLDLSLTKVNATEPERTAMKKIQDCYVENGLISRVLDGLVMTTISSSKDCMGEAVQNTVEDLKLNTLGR

No constants are given. Whether binding was seen depends on the method and setting.

In assay [1] the target is T1, Fel d1 (cat) (UniProt P30438+P30440). The assay is described as follows: ELISA. For orientation: In an ELISA, binding on a coated surface is turned into a signal by an enzyme label.
Assay [2] addresses T1, Fel d1 (cat). Briefly: Fel d1 ELISA, single condition against blank.

B1: IgE mAb 12_2 (antibody, V domains shown)
VH: QAYLQQSGAELVRPGASVKMSCKASGYTFISYNMHWVKQTRRQGLEWIGAIYPGNGDTSYNQKFKGKATLTVDKSSSTAYMQLSSLTSEDSAVYFCARWDYYGSSYGAYWGQGTLVTVSA
VL: DIQMTQSPASLSVSVGETVTITCRASENIYSNLAWYQQKQGKSPQLLVYAATNLADGVPSRFSGSGSGTQYSLKINSLQSEDFGSYYCQHFWGTPWTFGGGTKLEIK
Regarding B1, the results for the binding entry with Fel d1 (cat) [1] and with Fel d1 (cat) [2] were “no binding” and “no binding (tested: not shown on the sheet)”, respectively.
